{"sequences": {"note": "The chains behind the UniProt entries cited, without tags or fusion partners.", "UniProt Q0JBA9, entry or part of it": "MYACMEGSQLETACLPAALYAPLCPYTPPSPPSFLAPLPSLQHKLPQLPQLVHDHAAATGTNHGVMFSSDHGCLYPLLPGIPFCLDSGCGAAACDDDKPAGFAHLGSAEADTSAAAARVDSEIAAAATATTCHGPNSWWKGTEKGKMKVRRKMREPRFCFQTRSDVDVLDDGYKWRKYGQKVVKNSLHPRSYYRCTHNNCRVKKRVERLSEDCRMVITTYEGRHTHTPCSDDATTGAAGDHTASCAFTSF"}, "source": "paper PMC7819943", "about": "“Rice protein-binding microarrays: a tool to detect cis-acting elements near promoter regions in rice”", "note": "The list shows a part of the results."}
{"biological_target": "OsWRKY34 (Oryza sativa, UniProt Q0JBA9 1-250)", "assay": "protein-binding microarray (RPBM); PBS, 2% BSA, 51.3 ng/ul salmon testes DNA, 50 uM zinc acetate, 200 nM TF, 25 C, 1 h; high values mean tight binding", "settings": "protein: recombinant; tags: N-terminal polyhistidine and DsRed monomer fusion (pET32a); label: CyDye5-dUTP incorporated in the synthesized complementary strand; 3' TTTTT single-stranded linker to array surface; dsDNA, one strand shown", "summary_of_the_method": "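Transcription factors were each fused at the N-terminus to a polyhistidine tag plus DsRed and expressed in E. coli BL21-CodonPlus before Ni–NTA purification. Binding to a double-stranded custom Agilent array was carried out with 200 nM protein at 25 °C for 1 h in PBS, 2% BSA, salmon testes DNA and 50 µM zinc acetate. The binding signal is per-feature fluorescence intensity, in arbitrary units, on an Axon 4000B scanner.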"}
{"sequence": "GCATCTCATCTCATCGATCGATCTCGATCCATTTCCGTTTCGGAGTCACCTAGTGCAG", "binding signal": "9870 fluorescence intensity (a.u.)"}
{"sequence": "GCCCAGCCGCTCCACCGCCGACAGCGACAGCCCGGCGCGCCGGAGTCACCTAGTGCAG", "binding signal": "8970 fluorescence intensity (a.u.)"}
{"sequence": "TATACTCCATAGTAGTAAGTTATATCCTCTTTTTTATTTGCGGAGTCACCTAGTGCAG", "binding signal": "8380 fluorescence intensity (a.u.)"}
{"sequence": "TGTAGTGAGTGTGTGGCCCTTTTTATGGCACTGTTCTTCTCGGAGTCACCTAGTGCAG", "binding signal": "9040 fluorescence intensity (a.u.)"}
{"sequence": "GCCGCATGTAGGCCCACAACCCGGCCCATTGCCTACTACTCGGAGTCACCTAGTGCAG", "binding signal": "8600 fluorescence intensity (a.u.)"}
{"sequence": "CCTTCACATTTCCTCCATTCCGAATGAGCCCTTAAAATTTCGGAGTCACCTAGTGCAG", "binding signal": "8640 fluorescence intensity (a.u.)"}
{"sequence": "GACTAAGTGCCTCTCCTGTAAGTATTTTACGCTTTATTTACGGAGTCACCTAGTGCAG", "binding signal": "8700 fluorescence intensity (a.u.)"}
{"sequence": "GTAAATACACGATCTGCCATCACATTCGTCGCCGTTCCATCGGAGTCACCTAGTGCAG", "binding signal": "8300 fluorescence intensity (a.u.)"}
{"sequence": "TTTTCTGTTTTTTAATTTTTTTCTCTATTTTCATATTATTCGGAGTCACCTAGTGCAG", "binding signal": "8340 fluorescence intensity (a.u.)"}
{"sequence": "CACCTCCCCGCCCACCATTCCCACTTTCGCCCACACACACCGGAGTCACCTAGTGCAG", "binding signal": "9570 fluorescence intensity (a.u.)"}
{"sequence": "CAGAGCACTAGATAATGACCAGACCCACATTCCATTTCGACGGAGTCACCTAGTGCAG", "binding signal": "8090 fluorescence intensity (a.u.)"}
{"sequence": "GCAATTTGCTGCTGTTGTCGTCAGTCTAAATTTGTACTAGCGGAGTCACCTAGTGCAG", "binding signal": "9390 fluorescence intensity (a.u.)"}
{"sequence": "TTGTGTATTGGTGCTGTCGGTGCATGGGTGGTGGTTTTTTCGGAGTCACCTAGTGCAG", "binding signal": "20700 fluorescence intensity (a.u.)"}
{"sequence": "TGTCATGGAGGATGAATTCGTTGTGTAATTTCCCTTTCAGCGGAGTCACCTAGTGCAG", "binding signal": "8080 fluorescence intensity (a.u.)"}
{"sequence": "CTACTACTGCCACCTTTATAAATAGCCTCCTGACTTTTCTCGGAGTCACCTAGTGCAG", "binding signal": "8760 fluorescence intensity (a.u.)"}
{"sequence": "TTCCAAGCTTTTTTTTTTTTTGGTTCTGCAGCCATTTACTCGGAGTCACCTAGTGCAG", "binding signal": "8880 fluorescence intensity (a.u.)"}
{"sequence": "CGCGTGTTGATTACATTTCCAAATCCTTGGTCGACGCTAACGGAGTCACCTAGTGCAG", "binding signal": "8610 fluorescence intensity (a.u.)"}
{"sequence": "TTTATTATTAGTCTAAGTTTAATACTTCTTATTAGTGTCACGGAGTCACCTAGTGCAG", "binding signal": "8180 fluorescence intensity (a.u.)"}
{"sequence": "TACTACTACCTGTCATCTTCTCCTTCTTAATCCCAACTAACGGAGTCACCTAGTGCAG", "binding signal": "10300 fluorescence intensity (a.u.)"}
{"sequence": "CGGTGCCAAGTTGCCGATCGATCCGGTTTTTTTCGTTTTTCGGAGTCACCTAGTGCAG", "binding signal": "8190 fluorescence intensity (a.u.)"}
{"sequence": "TTGGGTTTGGTTGCGTTGCGGCCCATCCATCGCATTCGCGCGGAGTCACCTAGTGCAG", "binding signal": "8160 fluorescence intensity (a.u.)"}
{"sequence": "TGGAGTTTTGTTTCTCTCCCATCCCACCACCTCGGCCTCACGGAGTCACCTAGTGCAG", "binding signal": "8910 fluorescence intensity (a.u.)"}
{"sequence": "ACGCCGGAGCTCATCGCCAACAGCCGCATCCTCCACCGTCCGGAGTCACCTAGTGCAG", "binding signal": "9470 fluorescence intensity (a.u.)"}
{"sequence": "TGGTAATATGCTTGTCTAAAATATTTGAAAATATTTTTTTCGGAGTCACCTAGTGCAG", "binding signal": "8850 fluorescence intensity (a.u.)"}
{"sequence": "ATACTTCCATTTGTGCCATACATTTTGTCATTTCGACCTGCGGAGTCACCTAGTGCAG", "binding signal": "10800 fluorescence intensity (a.u.)"}
{"sequence": "CTTCGATCACCAAATCGCCACATCAATTACAACTTATAGTCGGAGTCACCTAGTGCAG", "binding signal": "9190 fluorescence intensity (a.u.)"}
{"sequence": "CGGTTTTCTGGTTGAGGGGTACGAATTAGATTCGGTGTATCGGAGTCACCTAGTGCAG", "binding signal": "8850 fluorescence intensity (a.u.)"}
{"sequence": "CTCGCCCTCGCGCGCCTCGCTATTAAAGCCGCGGCCTTCTCGGAGTCACCTAGTGCAG", "binding signal": "8200 fluorescence intensity (a.u.)"}
{"sequence": "CCTTTCTCCTCCTGTATACGTACGTACGTGCCGCTTTCGCCGGAGTCACCTAGTGCAG", "binding signal": "8570 fluorescence intensity (a.u.)"}
{"sequence": "TTAGAATCCATCCTCGCCTATATACAGCCTCAGAGTTGACCGGAGTCACCTAGTGCAG", "binding signal": "9520 fluorescence intensity (a.u.)"}
{"sequence": "TATACACACAAACTTCCAATTTTTCCGTCACATCGTTCCACGGAGTCACCTAGTGCAG", "binding signal": "8210 fluorescence intensity (a.u.)"}
{"sequence": "TCTCCCAGTCGTTGCTCCTCTGGCCCTCGTACTCCTCCAACGGAGTCACCTAGTGCAG", "binding signal": "9360 fluorescence intensity (a.u.)"}
{"sequence": "GTCTATTTGTCCCTGAAGGACAATTCCTTCTGCTGCATGCCGGAGTCACCTAGTGCAG", "binding signal": "8880 fluorescence intensity (a.u.)"}
{"sequence": "ATTTTTGGTCATGCTCACATCTTCACCTAGCAATAAGCCCCGGAGTCACCTAGTGCAG", "binding signal": "8100 fluorescence intensity (a.u.)"}
{"sequence": "CGGTAATTCTGCTAGCTCGGTTGGCATTGCGGTTCAGAAACGGAGTCACCTAGTGCAG", "binding signal": "8320 fluorescence intensity (a.u.)"}
{"sequence": "TTACACCCTCACACCTCACTCACTCACACACACACACAATCGGAGTCACCTAGTGCAG", "binding signal": "8070 fluorescence intensity (a.u.)"}
{"sequence": "CTGGCCCCTCTGCAAACTCGTCTCGTACCGTACCCCAAAACGGAGTCACCTAGTGCAG", "binding signal": "9260 fluorescence intensity (a.u.)"}
{"sequence": "CGTCTATATGATATCTTTATATGTATGTCGTTCCACATTCCGGAGTCACCTAGTGCAG", "binding signal": "8410 fluorescence intensity (a.u.)"}
{"sequence": "ATGCCTCTTTCGTAATCCATGGCCGTTTGATGCAGATCTCCGGAGTCACCTAGTGCAG", "binding signal": "9410 fluorescence intensity (a.u.)"}
{"sequence": "GACCCACTCTATCTTTTAACCTTGTCTCTAGACTGCTTTTCGGAGTCACCTAGTGCAG", "binding signal": "10400 fluorescence intensity (a.u.)"}
{"sequence": "GTGGTGTGAAGGAATAAGTCCATTTTGCCTCCCTCATCTCCGGAGTCACCTAGTGCAG", "binding signal": "8880 fluorescence intensity (a.u.)"}
{"sequence": "ACATTTCTGACTCTATTTCCAGTCTCAAGCAGTGTGACACCGGAGTCACCTAGTGCAG", "binding signal": "8650 fluorescence intensity (a.u.)"}
